Assay results as given in article PMC11615784.
No constants are given. Whether binding was seen depends on the method and setting. In cells and extracts the contact can be indirect. Some results given as binding are weak or reduced against the parent protein; the word gives no strength. Tags and fused reporters may be left off the sequences shown.

Chains of the proteins cited; added tags and fusions are not shown.
UniProt Q9UPY5: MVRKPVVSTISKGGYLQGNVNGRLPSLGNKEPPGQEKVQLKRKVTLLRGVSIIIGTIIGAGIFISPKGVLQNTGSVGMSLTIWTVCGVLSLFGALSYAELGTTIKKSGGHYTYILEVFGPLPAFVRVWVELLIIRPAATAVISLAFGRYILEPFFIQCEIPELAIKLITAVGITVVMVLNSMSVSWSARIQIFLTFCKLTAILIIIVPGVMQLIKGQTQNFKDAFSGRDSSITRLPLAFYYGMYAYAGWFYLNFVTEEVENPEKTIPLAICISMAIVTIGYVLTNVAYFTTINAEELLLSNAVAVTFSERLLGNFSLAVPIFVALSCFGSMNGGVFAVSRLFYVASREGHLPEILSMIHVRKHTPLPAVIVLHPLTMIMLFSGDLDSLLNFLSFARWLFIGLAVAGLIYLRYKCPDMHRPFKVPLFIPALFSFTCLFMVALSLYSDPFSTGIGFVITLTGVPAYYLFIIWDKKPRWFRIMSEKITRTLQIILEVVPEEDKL

Biological target: Flag-tagged xCT (solute carrier family 7 member 11, SLC7A11) (human) (UniProt Q9UPY5)
Test: co-IP; HEK293T cells (1 x 10^6) transfected with Myc-USP52 and Flag-xCT plasmids (wild type or truncations) for 48 h; lysate in IP binding buffer; Myc-IP or Flag-IP overnight at 4 °C, protein A/G magnetic beads; Western blot

B1: Myc-tagged USP52 (ubiquitin-specific peptidase 52 / poly(A) specific ribonuclease subunit 2) (enzyme, UniProt Q504Q3 1-1202)
chain: MNFEGLDPGLAEYAPAMHSALDPVLDAHLNPSLLQNVELDPEGVALEALPVQESVHIMEGVYSELHSVVAEVGVPVSVSHFDLHEEMLWVGSHGGHATSFFGPALERYSSFQVNGSDDIRQIQSLENGILFLTKNNLKYMARGGLIIFDYLLDENEDMHSLLLTDSSTLLVGGLQNHIIEIDLNTVQETQKYAVETPGVTIMRQTNRFFFCGHTSGKVSLRDLRTFKVEHEFDAFSGSLSDFDVHGNLLAACGFSSRLTGLACDRFLKVYDLRMMRAITPLQVHVDPAFLRFIPTYTSRLAIISQSGQCQFCEPTGLANPADIFHVNPVGPLLMTFDVSASKQALAFGDSEGCVHLWTDSPEPSFNPYSRETEFALPCLVDSLPPLDWSQDLLPLSLIPVPLTTDTLLSDWPAANSAPAPRRAPPVDAEILRTMKKVGFIGYAPNPRTRLRNQIPYRLKESDSEFDSFSQVTESPVGREEEPHLHMVSKKYRKVTIKYSKLGLEDFDFKHYNKTLFAGLEPHIPNAYCNCMIQVLYFLEPVRCLIQNHLCQKEFCLACELGFLFHMLDLSRGDPCQGNNFLRAFRTIPEASALGLILADSDEASGKGNLARLIQRWNRFILTQLHQDMQELEIPQAYRGAGGSSFCSSGDSVIGQLFSCEMENCSLCRCGSETVRASSTLLFTLSYPDGSKSDKTGKNYDFAQVLKRSICLDQNTQAWCDTCEKYQPTIQTRNIRHLPDILVINCEVNSSKEADFWRMQAEVAFKMAVKKHGGEISKNKEFALADWKELGSPEGVLVCPSIEELKNVWLPFSIRMKMTKNKGLDVCNWTDGDEMQWGPARAEEEHGVYVYDLMATVVHILDSRTGGSLVAHIKVGETYHQRKEGVTHQQWYLFNDFLIEPIDKHEAVQFDMNWKVPAILYYVKRNLNSRYNLNIKNPIEASVLLAEASLARKQRKTHTTFIPLMLNEMPQIGDLVGLDAEFVTLNEEEAELRSDGTKSTIKPSQMSVARITCVRGQGPNEGIPFIDDYISTQEQVVDYLTQYSGIKPGDLDAKISSKHLTTLKSTYLKLRFLIDIGVKFVGHGLQKDFRVINLMVPKDQVLDTVYLFHMPRKRMISLRFLAWYFLDLKIQGETHDSIEDARTALQLYRKYLELSKNGTEPESFHKVLKGLYEKGRKMDWKVPEPEGQTSPKNAAVFSSVLAL
- binding: binds
